Measured values as given in patent US9598716B2, “Destructible surfactants and uses thereof” (Waters Technologies Corporation, priority 2002, dated 2017).

Test system: trypsin
Test: Protein digestion by trypsin with or without ALS (MALDI-TOF, LC/MS)
Format: biochemical
Settings: for Peptides found after trypsin digestion, With ALS (0.1%): not reduced, MALDI-TOF 900-3000 amu

## sodium 4-[(2-methyl-2 undecyl-1,3-dioxolan-4-yl)methyl]-1-propanesulfonate [ALS]
BSA (66K), easy, minutes, w/o ALS 16 peptides + intact protein
  Peptides found after trypsin digestion, With ALS (0.1%): 21 peptides
Bacteriorhodopsin (26K), very difficult, overnight, w/o ALS 1 peptide (weak signal) + intact protein
  Peptides found after trypsin digestion, With ALS (0.1%): 3 peptides
Lysozyme (16K), easy, minutes, w/o ALS 2 peptides + intact protein
  Peptides found after trypsin digestion, With ALS (0.1%): 6 peptides
Myogiobin (17K), moderate, minutes, w/o ALS 0 peptide + intact protein
  Peptides found after trypsin digestion, With ALS (0.1%): 12 peptides
Ovalbumine (43K), moderate, minutes, w/o ALS 0 peptides + intact protein
  Peptides found after trypsin digestion, With ALS (0.1%): 2 peptides
Ubiqutin (8K), difficult, minutes, w/o ALS 0 peptide + intact protein
  Peptides found after trypsin digestion, With ALS (0.1%): 9 peptides
Myoglobin solubilized with 0.1% ALS, LC/MS TIC, without ALS majority undigested after 9 hrs
  Time to complete tryptic digestion of myoglobin: ≤ 5 min
